No constants are given. Whether binding was seen depends on the method and setting. Some entries that bind do so weakly or less than the wild type.
Legend:
[1] = molecular target: Heat-denatured BSA (bovine serum albumin autoclaved for 15 minutes) (bovine) (UniProt P02769); experiment: turbidity (OD550), heat-denatured BSA mixed with rising concentration of the kininogen fragment
[2] = molecular target: Heat-denatured BSA (bovine serum albumin autoclaved for 15 minutes) (bovine) (UniProt P02769); experiment: turbidity (OD550), heat-denatured BSA mixed with rising concentration of the ITIH4 fragment

Amino acid sequences for entries named in this document (tags omitted). Residues count along the entry.
UniProt P02769, residues 25-607: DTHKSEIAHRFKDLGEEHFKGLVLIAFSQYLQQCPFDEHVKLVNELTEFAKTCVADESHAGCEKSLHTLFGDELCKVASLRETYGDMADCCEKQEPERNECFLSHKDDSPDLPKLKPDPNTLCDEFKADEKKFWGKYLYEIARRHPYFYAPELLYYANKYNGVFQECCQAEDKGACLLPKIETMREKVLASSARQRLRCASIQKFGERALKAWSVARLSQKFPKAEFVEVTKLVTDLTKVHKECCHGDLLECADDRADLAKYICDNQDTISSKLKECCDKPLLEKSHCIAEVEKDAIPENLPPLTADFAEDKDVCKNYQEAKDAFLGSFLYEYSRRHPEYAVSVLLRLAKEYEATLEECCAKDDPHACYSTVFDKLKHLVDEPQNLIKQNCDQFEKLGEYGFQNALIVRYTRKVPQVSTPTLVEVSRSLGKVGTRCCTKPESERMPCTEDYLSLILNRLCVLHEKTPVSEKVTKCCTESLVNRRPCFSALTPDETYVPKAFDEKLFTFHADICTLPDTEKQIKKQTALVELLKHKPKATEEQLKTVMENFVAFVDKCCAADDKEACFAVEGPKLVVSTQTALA

B1: fragment of kininogen (positions 439 to 457) (peptide)
peptide: HNLGHGHKHERDQGHGHQR
notes: also called Kininogen (439-457); kininogen fragment
binding [1]: binds

B2: fragment of ITIH4 (positions 611 to 642) (peptide)
peptide: GESRNRNVHSGSTFFKYYLQGAKIPKPEASFS
notes: also called ITIH4 (611-642); ITIH4 fragment
binding [2]: binds

Reference: patent US20170089928A1 (SYSMEX, published 2017)
